The text below walks through data of the supplement of paper PMC7877785.

A short description of this data set: self-splicing fitness, log relative to wild type (ln ratio); higher = more splicing; Tetrahymena group I intron in knt gene, E. coli kanamycin selection, DiMSum; sequences stand for … in CUCUCU…GGAGGGAAAAGUUAUCAGGCAUGCACCUGGUAGCUAGUCUUUAAACCAAUAGAUUGCAUCGGUUUAAAAGGCAAGACCGUCAAAUUGCGGGAAAGGGGUCAACAGCCGUUCAGUACCAAGUCUCAGGGGAAACUUUGAGAUGGCCUUGCAAAGGGUAUGGUAAUAAGCUGACGGACAUGGUCCUAACCACGCAGCCAAGUCCUAAGUCAACAGAUCUUCUGUUGAUAUGGAUGCAGUUCACAGACUAAAUGUCGGUCGGGGAAGAUGUAUUCUUCUCAUAAGAUAUAGUCGGACCUCUCCUUAAUGGGAGCUAGCGGAUGAAGUGAUGCAACACUGGAGCCGCUGGGAACUAAUUUGUAUGCGAAAGUAUAUUGAUUAGUUUUGGAGUACUCGUGGUCG
A digest of the protocol: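 The eight P1ex-region nucleotides of an intron in the knt kanamycin-resistance gene on pET-22b(+) were all randomised and the library put into E. coli BL21(DE3). Six replicate transformations were grown overnight at 37°C or 30°C on LB agar with or without 25 μg/mL kanamycin, together with 100 μg/mL carbenicillin, 50 μM IPTG and 0.2% rhamnose. Colonies were pooled and amplicon-sequenced on an Illumina HiSeq 2500. Fitness from DiMSum is the error-weighted combination of wild-type-normalised replicate fold changes, kanamycin over none.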

± gives the uncertainty stated by the source. Many entries were measured with a wide error.

Turning to CUUUAGCAAUAUUACGAGAA, the “self-splicing fitness (ln)” value (30 °C) was -1.75 ± 0.63.

As to CUUUAGCAAUAUUACGAAAC, where the note is “30 °C”, the “self-splicing fitness (ln)” value is -4.5 ± 0.59. For GCCAAGCAAUAUUACGGGCC, the “self-splicing fitness (ln)” value runs as follows: (30 °C) -4.6 ± 0.51; (37 °C) -2.13 ± 0.32. GUCGAGCAAUAUUACGCUGA: the “self-splicing fitness (ln)” value (30 °C) is -2.74 ± 0.68.

Regarding CAGGAGCAAUAUUACGCACC, the “self-splicing fitness (ln)” value by setting is: (30 °C) -0.828 ± 0.58; (37 °C) -1.76 ± 0.85. Taken in the same sequence, the figures for AUCGAGCAAUAUUACGGGCU were -4.05 ± 0.23 and -2.94 ± 0.26. With UAUAAGCAAUAUUACGCGAC, the “self-splicing fitness (ln)” value (37 °C) is -1.59 ± 0.84.

As for GGGUAGCAAUAUUACGUGCC, the “self-splicing fitness (ln)” value (37 °C) was -1.39 ± 1.2.

For the sequence GGGAAGCAAUAUUACGAAAG, the “self-splicing fitness (ln)” value (30 °C) is -2.23 ± 0.51. GAAGAGCAAUAUUACGCAGG: for the setting “37 °C”, the “self-splicing fitness (ln)” value was -2.97 ± 0.61. Turning to CAUAAGCAAUAUUACGCUAC, for the setting “30 °C”, the “self-splicing fitness (ln)” value was -4.24 ± 0.73. As for CCAUAGCAAUAUUACGAACU, the “self-splicing fitness (ln)” value (37 °C) was -1.43 ± 0.57. For the sequence CUUAAGCAAUAUUACGGCCA, the “self-splicing fitness (ln)” value (37 °C) is -2.71 ± 0.75. Still for that read-out and setting: the result for UCGAAGCAAUAUUACGCUCC reads -1.84 ± 1.1. Take AACAAGCAAUAUUACGCUAC: the “self-splicing fitness (ln)” value (30 °C) is -4.09 ± 0.51. As for UACGAGCAAUAUUACGCGCC, the “self-splicing fitness (ln)” value (37 °C) is -2.85 ± 0.53. Still for that read-out and setting: next, UGAGAGCAAUAUUACGUGCU: -1.61 ± 0.84; UCUUAGCAAUAUUACGGACG: -2.69 ± 0.54. Turning to GAAGAGCAAUAUUACGACAA, where the note is “30 °C”, the “self-splicing fitness (ln)” value is -3.31 ± 1. The same measure, in the same setting: the result for CUGGAGCAAUAUUACGCCAU reads -2.66 ± 0.76. As for GUGUAGCAAUAUUACGAAGG, the “self-splicing fitness (ln)” value is -1.52 ± 0.87 (30 °C) and -2.6 ± 0.54 (37 °C). Taken in the same sequence, the figures for GAACAGCAAUAUUACGAACA were -0.908 ± 0.1 and -0.166 ± 0.12. With GUUAAGCAAUAUUACGACCC, the “self-splicing fitness (ln)” value (30 °C) was -1.38 ± 0.66. Regarding GUUGAGCAAUAUUACGAACC, the “self-splicing fitness (ln)” value (37 °C) was -0.656 ± 0.82. As to AUAGAGCAAUAUUACGUUAU, the “self-splicing fitness (ln)” value was -0.975 ± 0.089 (30 °C) and -0.177 ± 0.11 (37 °C). Taken in the same sequence, the figures for CGAAAGCAAUAUUACGUUCA were -0.312 ± 0.074 and 0.0231 ± 0.091.

Turning to UGAAAGCAAUAUUACGAAAC, where the note is “30 °C”, the “self-splicing fitness (ln)” value was -3.66 ± 0.73. In the case of UGGUAGCAAUAUUACGUCUC, the “self-splicing fitness (ln)” value is -3.22 ± 0.54 (30 °C) and -2.49 ± 0.64 (37 °C). Take GGUAAGCAAUAUUACGGUCC: where the note is “37 °C”, the “self-splicing fitness (ln)” value is -0.216 ± 0.52. As for UCUUAGCAAUAUUACGCAAU, for the setting “30 °C”, the “self-splicing fitness (ln)” value is -5.14 ± 1. On to GCUCAGCAAUAUUACGCCGC, for which the “self-splicing fitness (ln)” value (37 °C) is -2.3 ± 0.78.

As to GUAGAGCAAUAUUACGCCGC, the “self-splicing fitness (ln)” value runs as follows: (30 °C) -2.44 ± 1.1; (37 °C) -1.38 ± 0.84.

Turning to CCUGAGCAAUAUUACGAUAA, the “self-splicing fitness (ln)” value reads like this: (30 °C) -3.21 ± 0.74; (37 °C) -2.57 ± 1.1. For the sequence UCUGAGCAAUAUUACGAUAU, the “self-splicing fitness (ln)” value runs as follows: (30 °C) -4.15 ± 0.51; (37 °C) -2.79 ± 1.1.

Turning to GGAUAGCAAUAUUACGACCC, under “37 °C”, the “self-splicing fitness (ln)” value was -2.29 ± 1.1. Regarding UCGAAGCAAUAUUACGACUA, the “self-splicing fitness (ln)” value was -1.05 ± 0.16 (30 °C) and -0.97 ± 0.13 (37 °C). Turning to CGCGAGCAAUAUUACGCUCG, the “self-splicing fitness (ln)” value runs as follows: (30 °C) -3.48 ± 0.54; (37 °C) -1.19 ± 0.73. Taken in the same sequence, the figures for UCUAAGCAAUAUUACGCUCU were -3.32 ± 0.47 and -2.58 ± 0.41. On to CUGGAGCAAUAUUACGGCCA, for which the “self-splicing fitness (ln)” value (30 °C) is -3.79 ± 0.52.

In the case of UGGGAGCAAUAUUACGAGAA, where the note is “37 °C”, the “self-splicing fitness (ln)” value was -1.8 ± 0.81.

Take GGUUAGCAAUAUUACGUUGA: the “self-splicing fitness (ln)” value (30 °C) is -2 ± 0.2 and the “self-splicing fitness (ln)” value (37 °C) was -1.54 ± 0.17.

Consider GAGAAGCAAUAUUACGACUC, for which the “self-splicing fitness (ln)” value is -2.38 ± 0.18 (30 °C) and -1.82 ± 0.23 (37 °C). As to UCCGAGCAAUAUUACGGGUC, the “self-splicing fitness (ln)” value (30 °C) was -5.44 ± 1. Take CUCUAGCAAUAUUACGCCUG: under “37 °C”, the “self-splicing fitness (ln)” value is -2.4 ± 0.77. Still for that read-out and setting: next, GGAAAGCAAUAUUACGGUCC: -1.98 ± 1.1; CUUGAGCAAUAUUACGCCGC: -1.83 ± 0.69. Regarding CCUGAGCAAUAUUACGUCGC, the “self-splicing fitness (ln)” value (30 °C) was -3.84 ± 0.74. On the same count and under the same terms, next, CGGGAGCAAUAUUACGGGGC: -4.1 ± 0.52. In the case of GGGAAGCAAUAUUACGUCAC, the “self-splicing fitness (ln)” value is, setting by setting: (30 °C) -3.08 ± 0.2; (37 °C) -1.77 ± 0.19. UCCUAGCAAUAUUACGUCCC: the “self-splicing fitness (ln)” value (30 °C) is -3.21 ± 1.1.
